Library compounds against nucleic acid targets

Oligonucleotides screened, 5′ to 3′:
PreQ1: PreQ1 riboswitch RNA pseudoknot, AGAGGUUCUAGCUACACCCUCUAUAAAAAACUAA. From B. subtilis. Hit rate about 0.7% of about 24,000 compounds.
SAM-II: SAM-II riboswitch RNA pseudoknot, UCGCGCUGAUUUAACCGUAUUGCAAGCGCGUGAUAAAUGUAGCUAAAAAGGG. Hit rate about 1% of about 21,000 compounds.
TPP: TPP riboswitch RNA three-way junction, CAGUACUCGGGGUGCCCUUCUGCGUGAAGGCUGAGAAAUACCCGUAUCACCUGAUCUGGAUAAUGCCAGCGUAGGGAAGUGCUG. Hit rate about 0.7% of about 24,000 compounds.

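The test is a small-molecule microarray: each compound is printed twice on a reactive slide, and binding shows as fluorescence of the labelled oligonucleotide after washing. The data file lists only calls. An earlier report of the laboratory on the PreQ1, TPP and SAM-II riboswitches (doi:10.1038/s41467-019-09493-3) used 1 µM RNA for 2 h and required a mean Z-score above 3 (spot signal-to-noise against the whole library), a score well above that on a control array, and duplicate spots agreeing (coefficient of variation under 100); it then also set aside compounds that hit other targets, which this list keeps. The cut-offs behind this list may differ. A missing hit is not proof of no binding, and a hit is not a measured affinity.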
A compound is marked hit if it was called a hit and no hit if it was screened but was not.
The compounds are a random part of those screened.
A dash means that no call is listed here.

structure	PreQ1	SAM-II	TPP
Cc1cc(NC2CCCC2)n2nc(C)c(-c3ccc(F)cc3)c2n1	no hit	-	no hit
COC(=O)c1ccc(C(=O)Nc2nc3cc(N)c(C)cc3s2)cc1	no hit	no hit	no hit
CCOC(=O)c1cnc2c(OC)cccc2c1Nc1ccc(C(C)=O)cc1	no hit	no hit	no hit
O=C(CCc1cc2n(n1)CCCNC2)N1CCCC(c2nnc3ccccn23)C1 (centres unmarked)	no hit	no hit	no hit
CCOC(=O)C1=C(C)OC(N)=C(C#N)C1c1ccco1 (centres unmarked)	no hit	no hit	no hit
Cc1cccc(NS(=O)(=O)c2cc(Br)cnc2N)c1C	no hit	-	no hit
C(=Cc1ccncc1)c1ccncc1	no hit	no hit	no hit
COC(=O)c1coc(CN2CCCC3(CCC(=O)N(CCO)C3)C2)n1 (centres unmarked)	no hit	no hit	no hit
COc1ccccc1CCNCc1ccccc1C	no hit	no hit	no hit
CC(=O)OCC(=O)[C@@]1(O)CC[C@H]2[C@@H]3CCC4=CC(=O)C=C[C@]4(C)[C@@H]3[C@@H](O)C[C@@]21C	no hit	no hit	no hit
Cn1c(-c2ccc(Cl)cc2)cnc1NCc1cccc(F)c1	no hit	no hit	no hit
CC(C)Cc1nc2[nH]nc(N)c2c2c1COC(C)(C)C2	no hit	no hit	no hit
Cc1ccsc1[C@@H]1CCN(Cc2cccc3[nH]ccc23)C[C@H]1O	no hit	no hit	no hit
O=C(CCc1n[nH]c2c1CCCC2)N[C@H](CO)Cc1c[nH]c2ccccc12	no hit	no hit	no hit
Nc1c(C(=O)NCc2ccccc2)nnn1CC(=O)Nc1ccccc1	no hit	no hit	no hit
COc1ccc(C(=O)c2c(N)nc3n2CCC3)cc1	no hit	no hit	no hit
CC[C@H](CO)NC(=O)c1coc(COc2ccc3sc(C)nc3c2)n1	no hit	no hit	no hit
Cc1cc(SCc2sc(-c3ccc(C(F)(F)F)c(F)c3)nc2C)ccc1OCC(=O)O	no hit	no hit	no hit
CC(=O)c1cccc(Nc2nc(-c3c(C)nc4cc(C)ccn34)cs2)c1	no hit	no hit	no hit
Nc1sc2c(c1C(=O)c1ccccc1)CCCC2	no hit	hit	no hit
CC(C)(c1cc(Cl)c(O)c(CN2CCOCC2)c1)c1cc(Cl)c(O)c(CN2CCOCC2)c1	no hit	no hit	no hit
Nc1ccc2[nH]c3c(c2c1)CCCC3=O	no hit	no hit	no hit
Cl.Cn1nc(-c2ccccc2)nc1N.O	no hit	no hit	no hit
O=C1CC(Nc2ccc(N3CCOCC3)cc2)C(=O)N1c1ccccc1 (centres unmarked)	no hit	no hit	no hit
CO[C@H]1C[C@@H](O)C12CCN(c1nccc(N)n1)CC2	no hit	no hit	no hit
Cc1ccc(-c2nc3ncccn3c2Nc2ccc3c(c2)OCCO3)o1	no hit	no hit	no hit
CCOC(=O)c1sc2nc3c(cc2c1N)CN(C(C)C)CC3	no hit	no hit	no hit
N#CC1=C(N)Oc2c(c(=O)oc3ccccc23)C1CCc1ccccc1 (centres unmarked)	no hit	no hit	no hit
O=C(C1=C(O)C(=O)N(CCO)C1c1cccnc1)c1ccc(Cl)cc1 (centres unmarked)	no hit	no hit	no hit
COc1ccc(-c2ccc(NCCN3CCOCC3)nc2)cc1CO	no hit	no hit	no hit
COc1ccc(C2=N[C@H](c3ccc(Cl)cc3)[C@H](c3ccc(Cl)cc3)N2C(=O)N2CCNC(=O)C2)c(OC(C)C)c1	no hit	no hit	no hit
O=C(c1ccc(N2CCCC2=O)cc1)N1CC[C@@H](c2ccc(F)cc2)[C@H](O)C1	no hit	no hit	no hit
Cc1ccc(Nc2c(-c3ccncc3)nc3ccc(C)cn23)cc1	no hit	no hit	no hit
Cc1n[nH]c2c1C1(C(=O)Nc3ccc(Br)cc31)C(C#N)=C(N)O2 (centres unmarked)	no hit	no hit	no hit
O=C(O)c1ccc(CNCCc2ccc(Cl)cc2)s1	no hit	-	no hit
Cc1cc(C)c(-c2c(-c3ccccc3)ncn2CCCO)c(-n2cccn2)c1	no hit	no hit	no hit
NC(=O)c1ncn([C@@H]2O[C@H](CO)[C@@H](O)[C@@H]2O)n1	no hit	no hit	no hit
CN(C)c1ccc2c(c1)OC(N)=C(C#N)C2c1cccc(F)c1 (centres unmarked)	no hit	no hit	no hit
Cc1nn(CO)c(C)c1Sc1ccc(Br)cc1	no hit	no hit	no hit
O=C(O)CSc1ccc(NC(=O)Nc2ccccc2F)cc1	no hit	no hit	no hit
N#Cc1cnn(-c2nc3ccccc3[nH]c2=O)c1N	no hit	no hit	no hit
Nc1ccc(N2CCCS2(=O)=O)cc1	no hit	no hit	no hit
COc1ccc(-c2cc3nc(C)cc(Nc4ccc(C(N)=O)cc4)n3n2)cc1OC	no hit	-	no hit
COc1ccc(OC2CCN(C(=O)[C@@H]3C[C@@H](O)CN3)CC2)cc1	no hit	no hit	no hit
CC(N[C@H]1CCCC[C@H]1NC(=O)c1ccc(Cl)cc1)c1cccc2ccccc12 (some centres unmarked)	no hit	no hit	no hit
Cc1ccc(Cn2c(C(C)O)nc3ccccc32)cc1 (centres unmarked)	no hit	no hit	no hit
Cc1nc2c(c(Nc3ccc(C(=O)O)cc3)n1)CCC2	no hit	-	no hit
Cc1cc(C(=O)N2C[C@H](N)C[C@H]2C(=O)NC(C)C)sc1-c1ccccc1	no hit	no hit	no hit
CC(C)Nc1sc(C(=O)c2ccccc2)c(N)c1C#N	no hit	no hit	no hit
CCc1c(C)nc(N)nc1NC(c1ncccc1C)C1CC1 (centres unmarked)	no hit	no hit	no hit
Cc1cccc(-c2nc(NCCCN3CCOCC3)c3ccccc3n2)c1	no hit	no hit	no hit
NCCN1C(=O)C(O)=C(C(=O)c2ccccc2)C1c1ccccc1 (centres unmarked)	no hit	no hit	no hit
CCN[C@H]1C[C@H](C)S(=O)(=O)c2sc(S(N)(=O)=O)cc21	no hit	no hit	no hit
C=CCc1cc(Cl)ccc1OCCNCCN1CCOCC1.O=C(O)C(=O)O	no hit	no hit	no hit
N#Cc1c(N)sc2c1CCN(Cc1ccccc1)C2	no hit	no hit	no hit
C=CCN1C(=O)C2(C(C#N)=C(N)Oc3[nH]nc(C)c32)c2ccccc21 (centres unmarked)	no hit	no hit	no hit
O=C(Nc1ccccc1)Oc1ccc[nH]c1=O	no hit	no hit	no hit
Clc1ccccc1C(c1ccccc1)(c1ccccc1)n1cccn1	no hit	no hit	no hit
O=C1SC(Nc2ccccc2)C(=O)N1c1ccccc1 (centres unmarked)	no hit	no hit	no hit
Cn1ccnc1C(O)C1CCN(Cc2cn(-c3ccccc3)nn2)CC1 (centres unmarked)	no hit	no hit	no hit
Cc1nc(C2CC23CCNCC3)n(-c2cccc3cccnc23)n1 (centres unmarked)	no hit	no hit	no hit
COc1ccc2ccccc2c1C(O)c1nccn1C (centres unmarked)	no hit	no hit	no hit
COc1cc(CNCc2cccnc2)cc(Br)c1OCc1ccccc1Cl	no hit	no hit	no hit
Cn1ccnc1C(O)C1CCN(C(=O)c2cc(-c3ccccc3F)n[nH]2)CC1 (centres unmarked)	no hit	no hit	no hit
CC(C)c1nc(O)cc(N2CCC(NCCSc3nnnn3C)CC2)n1	no hit	no hit	no hit

For reference, 5 entries once more:

| structure | PreQ1 | SAM-II | TPP |
|---|---|---|---|
| `CC(=O)c1cccc(Nc2nc(-c3c(C)nc4cc(C)ccn34)cs2)c1` | no hit | no hit | no hit |
| `CCN[C@H]1C[C@H](C)S(=O)(=O)c2sc(S(N)(=O)=O)cc21` | no hit | no hit | no hit |
| `COc1ccccc1CCNCc1ccccc1C` | no hit | no hit | no hit |
| `Cc1nc(C2CC23CCNCC3)n(-c2cccc3cccnc23)n1` (centres unmarked) | no hit | no hit | no hit |
| `Cc1cccc(NS(=O)(=O)c2cc(Br)cnc2N)c1C` | no hit | - | no hit |

Calls as published in the ROBIN set (doi:10.1002/anie.202211358).